Data published in the supplement of paper PMC10470496.
Structures can show the parent of a compound that is named as a salt. The list shows a part of the results. Single values are uncertain, as repeats are few or missing.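 The three strains are clinical Candida auris isolates from the CDC resistance isolate bank, from clades III, IV and I, grown in RPMI-1640 at 35°C. Growth is background-corrected OD600 relative to vehicle-only wells on the same plate; a hit meant over 50% inhibition in at least two strains plus a plate-corrected B-score above 0.1.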

Key:
Test in all cases: growth relative to vehicle control (OD600 ratio) (fraction); higher = less inhibition
Conditions in all cases: 24 h
[1] = tested on: C. auris AR-384
[2] = tested on: C. auris AR-386
[3] = tested on: C. auris AR-387

Structure (SMILES)	growth ([1]; 1 µM)	growth ([1]; 10 µM)	growth ([2]; 1 µM)	growth ([2]; 10 µM)	growth ([3]; 1 µM)	growth ([3]; 10 µM)
Clc1ccc(Nc2nnc(Cc3ccncc3)c3ccccc23)cc1 [Vatalanib (PTK787) 2HCl]	0.91	1.31	1.37	1.15	1.03	1.29
Nc1nc(=O)[nH]cc1F [Flucytosine]	0.67	0.12	0.46	0.13	0.1	0.1
CCCCCN(C)CCC(O)(P(=O)(O)O)P(=O)(O)O [Ibandronate sodium]	0.98	1.01	0.93	0.71	0.91	1.03
NC(=O)NO [Hydroxyurea]	1.04	0.77	0.92	1.12	1	1.03
Oc1ccc(/C=C/c2cc(O)cc(O)c2)cc1 [Resveratrol]	0.77	1.16	0.97	0.89	1	1.06
O=C1NCC2(CCN(CCc3ccccc3)CC2)O1 [Fenspiride HCl]	1.04	1.12	1.35	1.24	1.34	1.39
C[N+]1(C)CCC(=C(c2ccccc2)c2ccccc2)CC1 [Diphemanil Methylsulfate]	0.98	0.67	0.71	0.65	0.67	0.87
CCCc1cc(C(N)=S)ccn1 [Protionamide]	1.57	1.14	1.01	1.09	1.01	0.93
CCCSc1nc(N[C@@H]2C[C@H]2c2ccc(F)c(F)c2)c2nnn([C@@H]3C[C@H](OCCO)[C@@H](O)[C@H]3O)c2n1 [Ticagrelor]	1.1	1.22	1.12	1.1	1.13	1.35
Cc1cc2c(s1)Nc1ccccc1N=C2N1CCN(C)CC1 [Olanzapine]	0.97	1.05	0.79	1.27	1.01	1.11
Cc1oncc1C(=O)Nc1ccc(C(F)(F)F)cc1 [Leflunomide]	0.71	1	0.64	0.89	0.78	0.94
CCS(=O)(=O)N1CCN(c2ccc(Nc3ncc(C(N)=O)c(NC4CC4)n3)cc2)CC1	0.89	0.89	0.9	0.95	0.61	0.87
CO[C@H]1O[C@@H]2O[C@@]3(C)CC[C@H]4[C@H](C)CC[C@@H]([C@H]1C)[C@@]24OO3 [Artemether]	0.71	0.43	1.13	0.88	0.76	0.5
COc1ccccc1OCC(O)COC(N)=O (stereo not given) [Methocarbamol]	1	1.24	1.02	0.9	0.77	0.89
C[C@@H](O)[C@H]1C(=O)N2C(C(=O)O)=C(S[C@@H]3CN[C@H](C(=O)N(C)C)C3)[C@H](C)[C@H]12 [Meropenem]	0.93	1.3	1.12	1.16	0.96	1.08
Nc1cccc2c1C(=O)N(C1CCC(=O)NC1=O)C2=O (stereo not given) [Pomalidomide]	1.09	1.08	1.14	0.64	0.92	0.7
C[C@H]1COc2c(N3CCN(C)CC3)c(F)cc3c(=O)c(C(=O)O)cn1c23 [Levofloxacin]	0.5	1.09	0.94	1.15	0.83	1
CCOc1ccc(NC(C)=O)cc1 [Phenacetin]	0.95	0.92	1.11	0.74	0.95	0.71
CC(C)[C@H]1C(=O)N[C@@H](CCCNC(=N)N)C(=O)NCC(=O)N[C@@H](CC(=O)O)C(=O)N[C@H](Cc2ccccc2)C(=O)N1C [Cilengitide trifluoroacetate]	0.94	0.89	0.99	0.92	0.92	0.98
CC(=O)OCC(COC(C)=O)OC(C)=O [Triacetin]	0.83	0.84	0.68	1	0.81	0.81
CC12CCC(CC1=O)C2(C)C (stereo not drawn) [(+)-Camphor]	0.81	0.97	0.94	0.74	0.79	0.68
CCC[C@@H]1C[C@@H](C(=O)N[C@@H]([C@H]2O[C@H](SC)[C@H](OP(=O)(O)O)[C@@H](O)[C@H]2O)[C@H](C)Cl)N(C)C1 [Clindamycin Phosphate]	0.9	1.14	1	0.99	0.86	1.05
CC(=O)Nc1nnc(S(N)(=O)=O)s1 [Acetazolamide]	0.96	0.97	0.69	0.88	0.8	0.85
O=C(O)c1ccccc1 [Benzoic Acid]	0.78	0.77	0.69	0.7	0.76	0.72
CCOc1nc2cccc(C(=O)OCc3oc(=O)oc3C)c2n1Cc1ccc(-c2ccccc2-c2noc(=O)[nH]2)cc1 [Azilsartan Medoxomil]	0.9	0.85	0.93	0.98	0.82	0.94

Compounds from the list above that contain a carbonyl joined to an NH by a bond outside any ring (seven):
Structure (SMILES)	growth ([1]; 1 µM)	growth ([1]; 10 µM)	growth ([2]; 1 µM)	growth ([2]; 10 µM)	growth ([3]; 1 µM)	growth ([3]; 10 µM)
NC(=O)NO [Hydroxyurea]	1.04	0.77	0.92	1.12	1	1.03
Cc1oncc1C(=O)Nc1ccc(C(F)(F)F)cc1 [Leflunomide]	0.71	1	0.64	0.89	0.78	0.94
CCS(=O)(=O)N1CCN(c2ccc(Nc3ncc(C(N)=O)c(NC4CC4)n3)cc2)CC1	0.89	0.89	0.9	0.95	0.61	0.87
COc1ccccc1OCC(O)COC(N)=O (stereo not given) [Methocarbamol]	1	1.24	1.02	0.9	0.77	0.89
CCOc1ccc(NC(C)=O)cc1 [Phenacetin]	0.95	0.92	1.11	0.74	0.95	0.71
CCC[C@@H]1C[C@@H](C(=O)N[C@@H]([C@H]2O[C@H](SC)[C@H](OP(=O)(O)O)[C@@H](O)[C@H]2O)[C@H](C)Cl)N(C)C1 [Clindamycin Phosphate]	0.9	1.14	1	0.99	0.86	1.05
CC(=O)Nc1nnc(S(N)(=O)=O)s1 [Acetazolamide]	0.96	0.97	0.69	0.88	0.8	0.85

Continued.

Structure (SMILES)	growth ([1]; 1 µM)	growth ([1]; 10 µM)	growth ([2]; 1 µM)	growth ([2]; 10 µM)	growth ([3]; 1 µM)	growth ([3]; 10 µM)
Nc1ccn([C@@H]2CS[C@H](CO)O2)c(=O)n1 [Lamivudine]	0.96	1.04	1.21	1.22	0.93	0.96
CCCCOC(=O)c1ccc(O)cc1 [Butylparaben]	1.1	1.01	0.96	0.8	1	0.88
CCCCc1oc2ccc(NS(C)(=O)=O)cc2c1C(=O)c1ccc(OCCCN(CCCC)CCCC)cc1 [Dronedarone HCl]	0.7	1.06	0.7	1.08	1	1.18
Cc1cn([C@H]2C[C@H](N=[N+]=[N-])[C@@H](CO)O2)c(=O)[nH]c1=O [Zidovudine]	0.9	0.74	1	1.02	0.71	1.04
Cn1c(=O)c2c(ncn2CC(O)CO)n(C)c1=O (stereo not given) [Dyphylline]	1.03	1.44	1.32	0.81	1.07	1.12
CC(=O)N1CCN(c2ccc(OCC3COC(Cn4ccnc4)(c4ccc(Cl)cc4Cl)O3)cc2)CC1 (stereo not given) [Ketoconazole]	0.41	0.86	0.52	0.04	0.04	0.04
Cc1ccccc1N1C(=O)c2cc(S(N)(=O)=O)c(Cl)cc2NC1C (stereo not given) [Metolazone]	1.19	1.11	1.2	0.73	1.02	0.68
CN1CCC(=C2c3ccccc3C=Cc3ccccc32)CC1 [Cyproheptadine HCl]	1	1.31	1.07	1.27	0.92	1.06
CCOC(=O)[C@H](CCc1ccccc1)N[C@@H](C)C(=O)N1[C@H](C(=O)O)C[C@@H]2CCC[C@@H]21 [Ramipril]	0.87	0.8	0.93	0.9	0.87	0.73
NCCCC(=O)O [4-Aminobutyric acid]	0.86	0.71	1.02	0.66	1.08	0.69
COC(=O)CCc1ccc(OCC(O)CNC(C)C)cc1 (stereo not given) [Esmolol HCl]	0.95	0.96	1.11	1.26	0.96	1.05
CCOc1nc2cccc(C(=O)O)c2n1Cc1ccc(-c2ccccc2-c2noc(=O)[nH]2)cc1 [Azilsartan]	1.04	0.85	0.92	1.05	0.89	1.08
C[N+](C)(CCOc1ccccc1)Cc1ccccc1.O=C([O-])c1cc2ccccc2cc1O [Bephenium Hydroxynaphthoate]	0.89	0.81	0.88	1	1.01	1.07
COc1ccc(C2CNC(=O)C2)cc1OC1CCCC1 (stereo not given) [Rolipram]	1.04	1.06	0.49	0.71	0.86	0.83
CN(C)CCCN1c2ccccc2Sc2ccc(Cl)cc21 [Chlorpromazine HCl]	0.84	0.84	0.97	1.27	1.26	1.15
CC(C)Oc1ccc(-c2nc(-c3cccc4c3CC[C@@H]4NCCO)no2)cc1C#N [Ozanimod (RPC1063)]	1.06	1.2	0.86	1.15	0.82	0.9
OC(c1ccccc1)(c1ccccc1)C12CC[N+](CCOCc3ccccc3)(CC1)CC2 [Umeclidinium bromide]	1.23	0.92	0.87	0.96	0.65	0.98
C1=N/C2=N/c3ccc(OCCN4CCCC4)c(c3)COC/C=C/COCc3cccc(c3)C(=C1)N2 [Pacritinib (SB1518)]	0.82	0.76	0.85	0.61	0.82	0.98
C[C@]12CCC(=O)C=C1CC[C@@H]1[C@@H]2[C@@H](O)C[C@@]2(C)[C@H]1CC[C@]2(O)C(=O)CO [Hydrocortisone]	0.99	1.35	1.35	1.45	1.12	1.31
CC(=O)c1cc2c(o1)C(=O)c1ccccc1C2=O [Napabucasin]	1.17	1.01	0.93	0.59	0.81	0.41
O=c1sn(-c2cccc3ccccc23)c(=O)n1Cc1ccccc1 [Tideglusib]	0.91	0.72	0.6	0.72	0.73	0.92
CC1=NN(c2ccccc2)C(=O)C1 [Edaravone]	1.12	0.71	0.93	1.2	0.92	1.19
CC(=O)NO [Acetohydroxamic acid]	1.12	1.05	1.04	1.16	0.88	1.06
CC(C)/N=c1\cc2n(-c3ccc(Cl)cc3)c3ccccc3nc-2cc1Nc1ccc(Cl)cc1 [Clofazimine]	1.01	0.78	1.15	0.88	0.82	0.61
Nc1ccc(S(=O)(=O)Nc2nccs2)cc1 [Sulfathiazole]	1.07	0.89	0.9	1.11	1.04	1.05

Ordered by heavy-atom count (largest number first): some entries from above.
Structure (SMILES)	growth ([1]; 1 µM)	growth ([1]; 10 µM)	growth ([2]; 1 µM)	growth ([2]; 10 µM)	growth ([3]; 1 µM)	growth ([3]; 10 µM)
CC(=O)N1CCN(c2ccc(OCC3COC(Cn4ccnc4)(c4ccc(Cl)cc4Cl)O3)cc2)CC1 (stereo not given) [Ketoconazole]	0.41	0.86	0.52	0.04	0.04	0.04
COc1ccc(C2CNC(=O)C2)cc1OC1CCCC1 (stereo not given) [Rolipram]	1.04	1.06	0.49	0.71	0.86	0.83
CC1=NN(c2ccccc2)C(=O)C1 [Edaravone]	1.12	0.71	0.93	1.2	0.92	1.19
